This is one part of the list.
Key:
Assay in all cases: log2 fold change, soluble protein after heating vs DMSO (PISA); higher = thermal stabilisation; K562 cells, 10 uM, 30 min; active = over 0.2 and 3.5 SD of the protein, either way, in both replicates (recomputed)
[1] = compound: NC(=O)Nc1cc(-c2cccc(F)c2)sc1C(=O)N[C@H]1CCCNC1
Procedure, shortened: (§1)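 K562 cells (2×10^6 cells/mL) were treated with 10 μM compound for 30 min, and aliquots were heated for 3 min over 48°C-58°C. Pooled aliquots were extracted in PBS with 0.5% NP-40 at 4°C, and the supernatant after 21,000xg for 90 min was measured by TMTpro 16plex LC-MS/MS with channel sums equalised. Reported thermal stability, relative to control samples and from duplicates, is a log2 fold change.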

Sequences of proteins named here, by UniProt entry; tags and fusion partners are left off. A change or cut given only in a name is not applied to a line headed by its entry.
UniProt P12429: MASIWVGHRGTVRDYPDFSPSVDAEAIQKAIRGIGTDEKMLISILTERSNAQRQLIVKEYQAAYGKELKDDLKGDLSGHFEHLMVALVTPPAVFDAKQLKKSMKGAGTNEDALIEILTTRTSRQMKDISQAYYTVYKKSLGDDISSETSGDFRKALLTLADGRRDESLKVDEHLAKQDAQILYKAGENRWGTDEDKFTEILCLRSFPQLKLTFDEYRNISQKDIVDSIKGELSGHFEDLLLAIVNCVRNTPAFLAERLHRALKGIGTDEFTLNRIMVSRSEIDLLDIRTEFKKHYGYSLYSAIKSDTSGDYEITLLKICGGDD
UniProt P07355, whole entry, looked up: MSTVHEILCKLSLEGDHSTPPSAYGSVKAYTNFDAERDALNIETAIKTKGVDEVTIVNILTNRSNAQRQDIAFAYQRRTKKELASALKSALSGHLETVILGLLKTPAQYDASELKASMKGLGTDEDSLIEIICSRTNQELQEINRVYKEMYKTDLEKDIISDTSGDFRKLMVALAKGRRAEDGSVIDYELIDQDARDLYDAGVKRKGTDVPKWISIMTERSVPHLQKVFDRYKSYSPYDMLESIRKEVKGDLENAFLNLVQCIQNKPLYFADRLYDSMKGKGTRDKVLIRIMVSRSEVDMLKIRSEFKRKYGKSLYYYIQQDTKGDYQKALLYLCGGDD
UniProt O95445: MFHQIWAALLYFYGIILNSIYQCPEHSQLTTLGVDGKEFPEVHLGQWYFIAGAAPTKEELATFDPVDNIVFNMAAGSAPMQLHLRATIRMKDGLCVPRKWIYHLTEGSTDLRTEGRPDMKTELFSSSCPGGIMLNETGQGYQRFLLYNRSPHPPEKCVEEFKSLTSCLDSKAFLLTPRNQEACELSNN
UniProt P04083: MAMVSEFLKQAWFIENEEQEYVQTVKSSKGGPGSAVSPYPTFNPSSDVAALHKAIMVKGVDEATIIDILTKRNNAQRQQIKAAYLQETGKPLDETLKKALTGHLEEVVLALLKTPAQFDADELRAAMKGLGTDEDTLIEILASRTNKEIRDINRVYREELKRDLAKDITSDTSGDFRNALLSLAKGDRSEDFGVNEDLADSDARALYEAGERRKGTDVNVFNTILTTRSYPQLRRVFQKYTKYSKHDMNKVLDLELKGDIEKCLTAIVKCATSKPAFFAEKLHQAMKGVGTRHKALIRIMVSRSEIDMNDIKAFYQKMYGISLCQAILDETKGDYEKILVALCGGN
UniProt Q8WVL7: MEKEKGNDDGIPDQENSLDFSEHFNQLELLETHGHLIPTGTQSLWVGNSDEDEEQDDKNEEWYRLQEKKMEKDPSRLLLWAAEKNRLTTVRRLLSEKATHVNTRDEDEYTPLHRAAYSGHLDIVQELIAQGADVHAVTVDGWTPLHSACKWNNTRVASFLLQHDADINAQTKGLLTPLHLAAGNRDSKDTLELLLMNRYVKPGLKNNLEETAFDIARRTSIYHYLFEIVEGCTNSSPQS
UniProt O14497, whole entry, looked up: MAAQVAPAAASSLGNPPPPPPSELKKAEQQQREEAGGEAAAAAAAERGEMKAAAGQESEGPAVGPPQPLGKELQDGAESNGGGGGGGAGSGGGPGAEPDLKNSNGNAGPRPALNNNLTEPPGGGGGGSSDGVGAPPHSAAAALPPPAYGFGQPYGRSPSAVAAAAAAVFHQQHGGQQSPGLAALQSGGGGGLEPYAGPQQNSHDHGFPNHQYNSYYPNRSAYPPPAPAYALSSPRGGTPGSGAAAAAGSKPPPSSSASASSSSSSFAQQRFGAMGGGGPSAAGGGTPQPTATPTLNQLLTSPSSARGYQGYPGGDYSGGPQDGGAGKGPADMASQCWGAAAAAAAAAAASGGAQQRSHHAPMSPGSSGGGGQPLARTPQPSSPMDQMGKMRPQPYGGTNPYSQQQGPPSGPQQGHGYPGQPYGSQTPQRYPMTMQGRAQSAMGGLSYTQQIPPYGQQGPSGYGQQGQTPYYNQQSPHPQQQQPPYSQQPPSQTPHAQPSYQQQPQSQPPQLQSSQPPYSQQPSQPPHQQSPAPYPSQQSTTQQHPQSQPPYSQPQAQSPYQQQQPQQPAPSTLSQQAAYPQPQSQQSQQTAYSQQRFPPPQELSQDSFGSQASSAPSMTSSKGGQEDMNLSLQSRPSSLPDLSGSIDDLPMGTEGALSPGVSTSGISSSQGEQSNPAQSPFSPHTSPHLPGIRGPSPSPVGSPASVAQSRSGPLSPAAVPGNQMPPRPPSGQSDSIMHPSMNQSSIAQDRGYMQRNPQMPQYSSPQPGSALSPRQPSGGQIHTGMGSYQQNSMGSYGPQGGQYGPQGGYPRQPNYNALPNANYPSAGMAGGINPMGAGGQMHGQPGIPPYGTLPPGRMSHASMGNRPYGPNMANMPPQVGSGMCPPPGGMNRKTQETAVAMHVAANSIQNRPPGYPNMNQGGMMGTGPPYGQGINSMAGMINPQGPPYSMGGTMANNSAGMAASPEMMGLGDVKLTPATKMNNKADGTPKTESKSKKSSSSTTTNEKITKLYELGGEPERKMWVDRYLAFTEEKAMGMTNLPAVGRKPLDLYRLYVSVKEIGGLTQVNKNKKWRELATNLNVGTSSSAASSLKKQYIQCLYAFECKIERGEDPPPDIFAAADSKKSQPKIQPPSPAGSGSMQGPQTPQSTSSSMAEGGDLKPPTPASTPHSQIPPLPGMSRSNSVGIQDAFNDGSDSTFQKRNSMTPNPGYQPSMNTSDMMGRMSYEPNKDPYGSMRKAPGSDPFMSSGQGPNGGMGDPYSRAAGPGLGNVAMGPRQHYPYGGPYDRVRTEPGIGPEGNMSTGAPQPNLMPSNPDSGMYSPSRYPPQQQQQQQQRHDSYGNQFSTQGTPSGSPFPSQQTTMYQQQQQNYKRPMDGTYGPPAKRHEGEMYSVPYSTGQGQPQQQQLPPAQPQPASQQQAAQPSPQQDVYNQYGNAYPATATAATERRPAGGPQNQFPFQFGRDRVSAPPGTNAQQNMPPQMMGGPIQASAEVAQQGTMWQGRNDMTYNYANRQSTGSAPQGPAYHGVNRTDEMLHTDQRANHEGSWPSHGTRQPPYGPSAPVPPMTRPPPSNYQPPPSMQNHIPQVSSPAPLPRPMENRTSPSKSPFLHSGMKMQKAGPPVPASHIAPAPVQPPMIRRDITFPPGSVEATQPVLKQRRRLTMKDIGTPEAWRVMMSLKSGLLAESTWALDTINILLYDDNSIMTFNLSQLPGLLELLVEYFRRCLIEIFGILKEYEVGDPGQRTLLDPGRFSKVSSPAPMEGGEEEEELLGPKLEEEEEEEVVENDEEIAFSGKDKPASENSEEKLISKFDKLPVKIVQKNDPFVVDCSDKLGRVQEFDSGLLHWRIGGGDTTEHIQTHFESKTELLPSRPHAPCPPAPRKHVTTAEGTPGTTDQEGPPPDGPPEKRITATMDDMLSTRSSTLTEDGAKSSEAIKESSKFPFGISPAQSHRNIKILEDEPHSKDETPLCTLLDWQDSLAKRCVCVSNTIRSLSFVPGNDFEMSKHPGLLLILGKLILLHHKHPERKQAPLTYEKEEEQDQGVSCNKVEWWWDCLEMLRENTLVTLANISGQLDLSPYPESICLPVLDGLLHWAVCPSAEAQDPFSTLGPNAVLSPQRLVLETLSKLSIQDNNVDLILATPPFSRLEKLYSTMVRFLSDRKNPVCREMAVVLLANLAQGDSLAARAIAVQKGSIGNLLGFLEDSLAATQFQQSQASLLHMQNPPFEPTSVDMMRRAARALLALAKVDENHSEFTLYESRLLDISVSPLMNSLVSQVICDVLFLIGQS
UniProt Q8N6D5: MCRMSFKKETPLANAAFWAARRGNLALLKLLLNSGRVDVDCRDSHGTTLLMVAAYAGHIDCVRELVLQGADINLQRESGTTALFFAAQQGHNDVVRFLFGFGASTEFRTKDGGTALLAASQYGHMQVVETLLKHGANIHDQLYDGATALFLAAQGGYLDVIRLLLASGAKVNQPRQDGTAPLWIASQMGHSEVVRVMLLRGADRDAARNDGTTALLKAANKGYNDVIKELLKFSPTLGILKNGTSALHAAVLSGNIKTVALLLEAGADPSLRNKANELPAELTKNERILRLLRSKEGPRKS
UniProt O43747: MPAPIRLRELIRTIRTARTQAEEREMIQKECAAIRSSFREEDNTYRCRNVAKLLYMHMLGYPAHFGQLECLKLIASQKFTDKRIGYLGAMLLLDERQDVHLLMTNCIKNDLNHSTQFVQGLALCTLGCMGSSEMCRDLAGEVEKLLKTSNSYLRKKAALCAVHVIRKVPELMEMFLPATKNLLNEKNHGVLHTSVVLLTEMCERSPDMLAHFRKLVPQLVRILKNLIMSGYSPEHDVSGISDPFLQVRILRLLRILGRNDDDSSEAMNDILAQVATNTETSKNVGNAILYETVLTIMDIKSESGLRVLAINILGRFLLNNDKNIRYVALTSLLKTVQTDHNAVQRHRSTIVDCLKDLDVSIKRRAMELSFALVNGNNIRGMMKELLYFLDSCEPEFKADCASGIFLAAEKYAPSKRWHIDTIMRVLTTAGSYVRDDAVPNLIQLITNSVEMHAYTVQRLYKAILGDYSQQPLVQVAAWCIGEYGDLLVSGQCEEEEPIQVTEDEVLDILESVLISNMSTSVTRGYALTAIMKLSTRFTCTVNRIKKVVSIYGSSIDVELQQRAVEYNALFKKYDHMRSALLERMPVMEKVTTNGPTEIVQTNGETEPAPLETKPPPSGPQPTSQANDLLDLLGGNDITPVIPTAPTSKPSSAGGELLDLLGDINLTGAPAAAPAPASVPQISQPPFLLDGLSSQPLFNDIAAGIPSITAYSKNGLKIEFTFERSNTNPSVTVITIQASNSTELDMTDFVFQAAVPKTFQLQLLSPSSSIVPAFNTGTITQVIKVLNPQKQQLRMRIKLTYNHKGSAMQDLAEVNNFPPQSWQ
UniProt Q8N6H7: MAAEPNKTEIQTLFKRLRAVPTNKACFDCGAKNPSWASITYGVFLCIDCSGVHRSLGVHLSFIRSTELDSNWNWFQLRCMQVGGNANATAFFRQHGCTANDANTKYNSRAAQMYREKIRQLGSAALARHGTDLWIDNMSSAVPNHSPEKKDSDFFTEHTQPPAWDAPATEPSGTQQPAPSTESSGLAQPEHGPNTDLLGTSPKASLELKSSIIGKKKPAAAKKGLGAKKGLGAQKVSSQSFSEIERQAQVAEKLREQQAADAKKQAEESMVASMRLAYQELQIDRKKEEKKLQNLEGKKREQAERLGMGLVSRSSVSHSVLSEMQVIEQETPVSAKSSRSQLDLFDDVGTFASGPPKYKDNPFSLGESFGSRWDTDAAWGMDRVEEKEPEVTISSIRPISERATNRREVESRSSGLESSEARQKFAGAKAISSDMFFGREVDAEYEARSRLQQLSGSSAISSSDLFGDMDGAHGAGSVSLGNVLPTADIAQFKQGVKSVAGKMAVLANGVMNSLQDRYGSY
UniProt P84085: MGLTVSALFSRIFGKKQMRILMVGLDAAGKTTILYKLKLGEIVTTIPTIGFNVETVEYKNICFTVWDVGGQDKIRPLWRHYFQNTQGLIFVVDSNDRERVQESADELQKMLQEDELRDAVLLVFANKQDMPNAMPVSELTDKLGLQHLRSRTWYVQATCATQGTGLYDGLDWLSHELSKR
UniProt Q92888: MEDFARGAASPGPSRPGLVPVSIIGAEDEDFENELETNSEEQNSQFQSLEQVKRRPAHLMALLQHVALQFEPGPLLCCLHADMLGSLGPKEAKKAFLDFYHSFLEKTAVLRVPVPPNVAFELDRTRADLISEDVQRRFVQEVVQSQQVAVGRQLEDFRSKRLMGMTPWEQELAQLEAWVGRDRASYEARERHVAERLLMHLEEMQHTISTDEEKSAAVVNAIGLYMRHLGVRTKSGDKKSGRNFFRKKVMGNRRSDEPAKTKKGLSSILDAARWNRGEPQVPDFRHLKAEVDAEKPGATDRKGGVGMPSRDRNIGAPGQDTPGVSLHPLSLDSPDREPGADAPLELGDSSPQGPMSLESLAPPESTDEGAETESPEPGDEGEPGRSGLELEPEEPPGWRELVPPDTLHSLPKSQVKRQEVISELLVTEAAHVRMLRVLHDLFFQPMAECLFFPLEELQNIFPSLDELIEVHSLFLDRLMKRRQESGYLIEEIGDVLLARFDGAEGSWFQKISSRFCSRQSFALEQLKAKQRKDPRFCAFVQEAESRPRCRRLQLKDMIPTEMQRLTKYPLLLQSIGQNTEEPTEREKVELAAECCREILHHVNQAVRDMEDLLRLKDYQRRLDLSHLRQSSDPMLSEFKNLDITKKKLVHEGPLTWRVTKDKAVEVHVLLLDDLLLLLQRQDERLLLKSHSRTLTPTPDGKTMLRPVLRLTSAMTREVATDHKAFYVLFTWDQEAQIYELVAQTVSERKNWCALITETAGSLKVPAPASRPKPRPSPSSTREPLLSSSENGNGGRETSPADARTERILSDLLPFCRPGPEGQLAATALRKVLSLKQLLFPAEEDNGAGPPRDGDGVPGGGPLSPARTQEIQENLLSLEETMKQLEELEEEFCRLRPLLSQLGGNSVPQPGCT

[2] = compound: NC(=O)c1cnc(N[C@@H]2CCCC[C@@H]2N)nc1Nc1cccc(-n2nccn2)c1
Procedure, shortened: as §1

[3] = compound: NC1(c2ccc(-c3nc4ccn5c(=O)[nH]nc5c4cc3-c3ccccc3)cc2)CCC1
Procedure, shortened: as §1

[4] = compound: NCC(=O)Nc1ccc(-n2nc(C(F)(F)F)cc2-c2ccc3c(ccc4ccccc43)c2)cc1
Procedure, shortened: as §1

entinostat = compound: Nc1ccccc1NC(=O)c1ccc(CNC(=O)OCc2cccnc2)cc1 [entinostat]
Procedure, shortened: as §1

vorinostat = compound: O=C(CCCCCCC(=O)Nc1ccccc1)NO [vorinostat]
Procedure, shortened: as §1

citarinostat = compound: O=C(CCCCCCNC(=O)c1cnc(N(c2ccccc2)c2ccccc2Cl)nc1)NO [citarinostat]
Procedure, shortened: as §1

silmitasertib = compound: O=C(O)c1ccc2c(c1)nc(Nc1cccc(Cl)c1)c1ccncc12 [silmitasertib]
Procedure, shortened: as §1

[5] = compound: O=C1NC(=O)C(c2cnc3ccccn23)=C1c1cn2c3c(cc(F)cc13)CN(C(=O)N1CCCCC1)CC2
Procedure, shortened: as §1

[6] = compound: c1cc(OCCN2CCCCC2)cc(-c2n[nH]c3ccc(-c4nnc[nH]4)cc23)c1
Procedure, shortened: as §1

| Target | log2 fold change [1] | log2 fold change [2] | log2 fold change [3] | log2 fold change [4] | log2 fold change (entinostat) | log2 fold change (vorinostat) | log2 fold change (citarinostat) | log2 fold change (silmitasertib) | log2 fold change [5] | log2 fold change [6] |
| --- | --- | --- | --- | --- | --- | --- | --- | --- | --- | --- |
| ANXA3 (UniProt P12429) | inactive: -0.03 | inactive: -0.011 | inactive: -0.108 | inactive: -0.055 | inactive: 0.008 | inactive: -0.011 | inactive: 0.062 | inactive: 0 | inactive: -0.091 | inactive: -0.016 |
| APOL2 (UniProt J3KQL8) | inactive: -0.076 | inactive: -0.122 | inactive: -0.062 | inactive: -0.039 | inactive: 0.012 | inactive: -0.111 | inactive: -0.083 | inactive: -0.032 | inactive: 0.022 | inactive: -0.006 |
| ARCN1 (UniProt P48444) | inactive: -0.009 | inactive: -0.028 | inactive: -0.05 | inactive: 0.035 | inactive: 0.03 | inactive: 0.003 | inactive: 0.094 | inactive: 0.016 | inactive: -0.028 | inactive: 0.011 |
| ARFGAP3 (UniProt Q9NP61) | inactive: -0.003 | inactive: -0.021 | inactive: -0.013 | inactive: -0.017 | inactive: -0.004 | inactive: 0.025 | inactive: 0.041 | inactive: 0.023 | inactive: -0.101 | inactive: 0.015 |
| ANXA2 isoform 2 (UniProt P07355) | inactive: 0.044 | inactive: 0.011 | inactive: -0.04 | inactive: -0.007 | inactive: 0.041 | inactive: 0 | inactive: 0.062 | inactive: -0.046 | inactive: -0.016 | inactive: 0.108 |
| ANO6 isoform 2 (UniProt Q4KMQ2) | inactive: -0.126 | inactive: 0.009 | inactive: -0.001 | inactive: -0.035 | inactive: 0 | inactive: 0.042 | inactive: -0.051 | inactive: -0.009 | inactive: -0.053 | inactive: 0.003 |
| APOM (UniProt O95445) | inactive: -0.151 | inactive: -0.028 | inactive: 0.047 | inactive: 0.04 | inactive: -0.009 | inactive: 0.068 | inactive: -0.042 | inactive: 0.106 | inactive: -0.016 | inactive: 0.435 |
| ANAPC4 isoform 3 (UniProt Q9UJX5) | inactive: -0.03 | inactive: -0.038 | inactive: -0.042 | inactive: -0.021 | inactive: 0 | inactive: -0.035 | inactive: 0.042 | inactive: 0.025 | inactive: -0.031 | inactive: -0.055 |
| ARFGEF2 (UniProt Q9Y6D5) | inactive: -0.126 | inactive: 0.083 | inactive: -0.078 | inactive: 0.007 | inactive: 0.024 | inactive: 0.066 | inactive: -0.014 | inactive: 0.004 | inactive: -0.057 | inactive: 0.046 |
| ARFIP1 (UniProt P53367) | inactive: 0.116 | inactive: -0.002 | inactive: -0.162 | inactive: 0.062 | inactive: 0.079 | inactive: 0.031 | inactive: 0.121 | inactive: -0.011 | inactive: -0.042 | inactive: -0.048 |
| ANAPC2 (UniProt Q9UJX6) | inactive: 0.079 | inactive: -0.025 | inactive: -0.063 | inactive: -0.023 | inactive: 0.02 | inactive: 0.074 | inactive: 0.124 | inactive: 0.087 | inactive: 0.027 | inactive: -0.049 |
| ANXA1 (UniProt P04083) | inactive: -0.029 | inactive: -0.08 | inactive: -0.14 | inactive: -0.085 | inactive: 0.114 | inactive: 0.055 | inactive: 0.036 | inactive: 0.11 | inactive: -0.027 | inactive: 0.029 |
| AP5Z1 (UniProt O43299) | inactive: -0.067 | inactive: -0.131 | inactive: -0.011 | inactive: -0.037 | inactive: -0.081 | inactive: 0.099 | inactive: -0.175 | inactive: -0.031 | inactive: 0.224 | inactive: -0.108 |
| ANKRD49 (UniProt Q8WVL7) | inactive: 0.025 | inactive: -0.011 | inactive: -0.002 | inactive: -0.019 | inactive: 0.037 | inactive: 0.084 | inactive: 0.041 | inactive: 0.002 | inactive: 0.013 | inactive: -0.014 |
| ARID1A (UniProt O14497) | inactive: 0.163 | inactive: -0.095 | inactive: -0.037 | inactive: -0.107 | inactive: 0.115 | inactive: 0.011 | inactive: 0.216 | inactive: 0.012 | inactive: 0.104 | inactive: 0.402 |
| ARFIP2 (UniProt P53365) | inactive: 0.1 | inactive: 0.141 | inactive: -0.244 | inactive: 0.09 | inactive: 0.14 | inactive: 0.179 | inactive: 0.076 | inactive: 0.029 | inactive: 0.043 | inactive: -0.093 |
| ANKRD29 (UniProt Q8N6D5) | inactive: -0.044 | inactive: -0.181 | inactive: -0.337 | inactive: -0.119 | inactive: -0.03 | inactive: 0.061 | inactive: -0.002 | inactive: 0.039 | inactive: -0.2 | inactive: -0.051 |
| APEH (UniProt P13798) | inactive: 0.014 | inactive: 0.005 | inactive: 0.022 | inactive: 0.011 | inactive: -0.017 | inactive: -0.029 | inactive: 0.01 | inactive: -0.007 | inactive: -0.02 | inactive: -0.004 |
| ANKMY2 (UniProt Q8IV38) | inactive: 0.025 | inactive: -0.054 | inactive: -0.075 | inactive: -0.049 | inactive: 0.042 | inactive: 0.053 | inactive: 0.062 | inactive: 0.013 | inactive: -0.058 | inactive: -0.006 |
| ARHGAP12 (UniProt Q8IWW6) | inactive: 0.052 | inactive: -0.059 | inactive: -0.041 | inactive: 0.085 | inactive: -0.092 | inactive: 0.095 | inactive: 0.046 | inactive: 0.022 | inactive: -0.088 | inactive: 0.016 |
| AP1G1 isoform 2 (UniProt O43747) | inactive: -0.032 | inactive: -0.032 | inactive: -0.08 | inactive: -0.021 | inactive: 0.025 | inactive: 0.092 | inactive: 0.055 | inactive: 0.111 | inactive: -0.051 | inactive: -0.01 |
| ANAPC5 (UniProt Q9UJX4) | inactive: 0.006 | inactive: 0.012 | inactive: -0.03 | inactive: 0.014 | inactive: -0.001 | inactive: 0.024 | inactive: 0.02 | inactive: 0.016 | inactive: 0.005 | inactive: -0.047 |
| APPL1 (UniProt Q9UKG1) | inactive: -0.032 | inactive: -0.012 | inactive: -0.023 | inactive: -0.043 | inactive: -0.053 | inactive: 0.009 | inactive: 0.04 | inactive: 0.022 | inactive: -0.046 | inactive: 0.07 |
| ANKRD13A (UniProt Q8IZ07) | inactive: 0.052 | inactive: -0.045 | inactive: -0.015 | inactive: 0.006 | inactive: -0.011 | inactive: 0.026 | inactive: 0.015 | inactive: 0.024 | inactive: -0.065 | inactive: -0.093 |
| ANK3 (UniProt Q12955) | inactive: -0.156 | inactive: 0.022 | inactive: -0.01 | inactive: 0.06 | inactive: -0.056 | inactive: -0.122 | inactive: -0.018 | inactive: 0.068 | inactive: -0.066 | inactive: -0.083 |
| ARFGAP2 (UniProt Q8N6H7) | inactive: -0.007 | inactive: -0.097 | inactive: -0.08 | inactive: -0.014 | inactive: 0.037 | inactive: -0.017 | inactive: 0.015 | inactive: 0.017 | inactive: -0.016 | inactive: -0.035 |
| ARF5 (UniProt P84085) | inactive: -0.037 | inactive: 0.01 | inactive: -0.018 | inactive: 0.009 | inactive: 0.003 | inactive: -0.006 | inactive: 0.006 | inactive: 0.011 | inactive: -0.008 | inactive: -0.051 |
| ARHGEF1 isoform 3 (UniProt Q92888) | inactive: 0.073 | inactive: 0.037 | inactive: 0.011 | inactive: 0.014 | inactive: 0.058 | inactive: 0.056 | inactive: 0.064 | inactive: 0.094 | inactive: 0.038 | inactive: -0.01 |
| AP2A1 (UniProt O95782) | active: -0.38 | inactive: 0.061 | inactive: 0.041 | inactive: 0.026 | inactive: -0.002 | inactive: 0.038 | inactive: 0.005 | inactive: 0.047 | active: -0.275 | active: -0.227 |
| ANXA7 (UniProt P20073) | inactive: -0.024 | inactive: 0.008 | inactive: -0.102 | inactive: -0.027 | inactive: 0.019 | inactive: -0.001 | inactive: 0.052 | inactive: 0.022 | inactive: -0.046 | inactive: -0.021 |

Single records, as listed above. Values in the order: log2 fold change [1] | log2 fold change [2] | log2 fold change [3] | log2 fold change [4] | log2 fold change (entinostat) | log2 fold change (vorinostat) | log2 fold change (citarinostat) | log2 fold change (silmitasertib) | log2 fold change [5] | log2 fold change [6]
ANK3 (UniProt Q12955) is entered as inactive: -0.156 | inactive: 0.022 | inactive: -0.01 | inactive: 0.06 | inactive: -0.056 | inactive: -0.122 | inactive: -0.018 | inactive: 0.068 | inactive: -0.066 | inactive: -0.083
APOM (UniProt O95445) is entered as inactive: -0.151 | inactive: -0.028 | inactive: 0.047 | inactive: 0.04 | inactive: -0.009 | inactive: 0.068 | inactive: -0.042 | inactive: 0.106 | inactive: -0.016 | inactive: 0.435
